# Assay results published in the supplement of paper PMC12067093, “Discovery and optimisation of a covalent ligand for TRIM25 and its application to targeted protein ubiquitination” (Chemical Science, 2025).
# By UniProt entry, the sequences of proteins in these tests, tags left out. Where a name states a change or a piece, a line headed by the entry shows the natural chain unless it says otherwise.
# UniProt Q96RL1: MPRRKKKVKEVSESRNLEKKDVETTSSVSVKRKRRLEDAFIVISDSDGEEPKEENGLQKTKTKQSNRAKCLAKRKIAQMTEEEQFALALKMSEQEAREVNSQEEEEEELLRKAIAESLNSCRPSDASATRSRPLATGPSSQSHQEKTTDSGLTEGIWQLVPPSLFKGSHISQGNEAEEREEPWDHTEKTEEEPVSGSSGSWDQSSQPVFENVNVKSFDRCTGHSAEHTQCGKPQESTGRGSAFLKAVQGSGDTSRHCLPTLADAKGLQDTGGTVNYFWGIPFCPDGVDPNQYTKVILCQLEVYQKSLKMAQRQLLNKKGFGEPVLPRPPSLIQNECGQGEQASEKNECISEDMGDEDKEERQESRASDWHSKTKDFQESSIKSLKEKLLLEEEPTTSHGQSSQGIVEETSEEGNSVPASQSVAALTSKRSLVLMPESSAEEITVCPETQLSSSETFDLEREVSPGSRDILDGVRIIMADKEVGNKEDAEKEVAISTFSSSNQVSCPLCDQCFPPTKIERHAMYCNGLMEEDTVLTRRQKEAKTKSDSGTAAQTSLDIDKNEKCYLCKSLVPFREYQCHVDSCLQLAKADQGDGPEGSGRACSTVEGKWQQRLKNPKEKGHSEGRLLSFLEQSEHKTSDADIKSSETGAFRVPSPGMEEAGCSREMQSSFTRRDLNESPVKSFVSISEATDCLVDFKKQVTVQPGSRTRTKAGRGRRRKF
# UniProt Q9BZX2: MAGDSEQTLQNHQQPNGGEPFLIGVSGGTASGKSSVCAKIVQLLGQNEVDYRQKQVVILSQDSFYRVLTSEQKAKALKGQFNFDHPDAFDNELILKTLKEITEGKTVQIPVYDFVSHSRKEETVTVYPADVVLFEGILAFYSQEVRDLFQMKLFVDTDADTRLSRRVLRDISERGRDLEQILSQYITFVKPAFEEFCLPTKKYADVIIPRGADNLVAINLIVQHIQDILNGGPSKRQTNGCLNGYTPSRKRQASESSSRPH
# UniProt Q70J99: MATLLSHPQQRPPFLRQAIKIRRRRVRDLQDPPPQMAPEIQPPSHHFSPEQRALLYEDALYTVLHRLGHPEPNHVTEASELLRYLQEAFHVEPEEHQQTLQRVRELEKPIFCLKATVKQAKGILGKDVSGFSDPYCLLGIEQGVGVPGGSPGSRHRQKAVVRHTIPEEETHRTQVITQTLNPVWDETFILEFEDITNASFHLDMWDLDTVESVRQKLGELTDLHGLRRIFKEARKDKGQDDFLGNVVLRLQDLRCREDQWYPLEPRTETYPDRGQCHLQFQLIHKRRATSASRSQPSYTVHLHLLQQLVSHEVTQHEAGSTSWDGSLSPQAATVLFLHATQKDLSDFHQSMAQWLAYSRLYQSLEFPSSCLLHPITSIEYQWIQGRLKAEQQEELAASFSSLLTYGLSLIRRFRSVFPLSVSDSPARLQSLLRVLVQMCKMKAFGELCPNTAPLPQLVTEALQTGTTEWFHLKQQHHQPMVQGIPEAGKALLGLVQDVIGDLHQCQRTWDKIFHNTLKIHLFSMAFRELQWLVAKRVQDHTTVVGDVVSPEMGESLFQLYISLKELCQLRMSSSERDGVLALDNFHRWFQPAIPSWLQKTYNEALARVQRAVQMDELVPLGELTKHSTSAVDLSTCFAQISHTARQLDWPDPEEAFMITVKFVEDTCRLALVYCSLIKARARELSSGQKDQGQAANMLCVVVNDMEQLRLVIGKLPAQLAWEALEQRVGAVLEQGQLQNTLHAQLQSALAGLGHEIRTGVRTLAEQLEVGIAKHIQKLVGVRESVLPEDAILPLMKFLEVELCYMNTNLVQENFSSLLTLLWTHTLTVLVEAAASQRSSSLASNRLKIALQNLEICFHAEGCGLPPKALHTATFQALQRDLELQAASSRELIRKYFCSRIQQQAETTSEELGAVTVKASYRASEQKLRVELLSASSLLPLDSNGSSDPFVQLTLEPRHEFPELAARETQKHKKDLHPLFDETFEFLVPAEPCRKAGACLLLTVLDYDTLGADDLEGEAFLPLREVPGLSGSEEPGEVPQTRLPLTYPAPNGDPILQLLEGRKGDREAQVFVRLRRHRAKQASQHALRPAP
# UniProt Q9NYU2: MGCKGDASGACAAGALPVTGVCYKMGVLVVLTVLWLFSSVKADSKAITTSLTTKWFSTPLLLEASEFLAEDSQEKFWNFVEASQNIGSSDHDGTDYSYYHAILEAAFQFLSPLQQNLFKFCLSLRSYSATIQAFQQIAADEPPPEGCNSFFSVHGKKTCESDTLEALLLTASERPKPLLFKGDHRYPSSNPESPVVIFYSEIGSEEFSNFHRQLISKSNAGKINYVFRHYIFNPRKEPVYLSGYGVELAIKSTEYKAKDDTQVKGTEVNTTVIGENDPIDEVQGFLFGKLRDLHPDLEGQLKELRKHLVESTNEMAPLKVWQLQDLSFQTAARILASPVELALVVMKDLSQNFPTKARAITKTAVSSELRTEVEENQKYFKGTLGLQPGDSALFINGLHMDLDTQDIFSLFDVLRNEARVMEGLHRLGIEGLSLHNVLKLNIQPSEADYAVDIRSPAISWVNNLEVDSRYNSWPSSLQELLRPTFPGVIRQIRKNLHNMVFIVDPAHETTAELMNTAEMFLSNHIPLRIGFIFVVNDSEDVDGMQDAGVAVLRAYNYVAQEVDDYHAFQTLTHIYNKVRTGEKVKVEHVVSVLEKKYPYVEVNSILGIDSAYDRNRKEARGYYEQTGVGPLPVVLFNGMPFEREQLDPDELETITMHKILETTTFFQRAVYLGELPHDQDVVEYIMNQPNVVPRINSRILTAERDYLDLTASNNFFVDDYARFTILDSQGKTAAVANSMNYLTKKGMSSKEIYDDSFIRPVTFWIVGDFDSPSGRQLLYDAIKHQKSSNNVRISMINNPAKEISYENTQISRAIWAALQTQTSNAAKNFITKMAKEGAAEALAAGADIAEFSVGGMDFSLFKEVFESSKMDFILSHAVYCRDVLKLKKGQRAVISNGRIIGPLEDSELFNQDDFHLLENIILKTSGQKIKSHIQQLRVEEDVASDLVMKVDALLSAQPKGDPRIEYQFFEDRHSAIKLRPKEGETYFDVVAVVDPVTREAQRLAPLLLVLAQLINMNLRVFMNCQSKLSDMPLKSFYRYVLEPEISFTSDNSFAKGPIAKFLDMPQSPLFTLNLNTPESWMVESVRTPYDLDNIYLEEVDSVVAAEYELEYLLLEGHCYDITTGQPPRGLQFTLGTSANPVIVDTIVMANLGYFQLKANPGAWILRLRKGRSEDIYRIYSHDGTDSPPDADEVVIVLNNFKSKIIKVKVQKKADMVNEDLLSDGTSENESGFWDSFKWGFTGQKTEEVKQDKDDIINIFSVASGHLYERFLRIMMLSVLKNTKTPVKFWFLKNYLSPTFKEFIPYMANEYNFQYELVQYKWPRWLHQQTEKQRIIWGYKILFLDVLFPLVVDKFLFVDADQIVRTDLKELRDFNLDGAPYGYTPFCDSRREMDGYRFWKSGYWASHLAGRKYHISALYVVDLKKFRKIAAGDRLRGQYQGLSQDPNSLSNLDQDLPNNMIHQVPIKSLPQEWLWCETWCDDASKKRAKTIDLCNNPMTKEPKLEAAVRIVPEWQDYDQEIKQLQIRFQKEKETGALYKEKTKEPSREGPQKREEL
# UniProt Q9Y5K5, whole entry, looked up: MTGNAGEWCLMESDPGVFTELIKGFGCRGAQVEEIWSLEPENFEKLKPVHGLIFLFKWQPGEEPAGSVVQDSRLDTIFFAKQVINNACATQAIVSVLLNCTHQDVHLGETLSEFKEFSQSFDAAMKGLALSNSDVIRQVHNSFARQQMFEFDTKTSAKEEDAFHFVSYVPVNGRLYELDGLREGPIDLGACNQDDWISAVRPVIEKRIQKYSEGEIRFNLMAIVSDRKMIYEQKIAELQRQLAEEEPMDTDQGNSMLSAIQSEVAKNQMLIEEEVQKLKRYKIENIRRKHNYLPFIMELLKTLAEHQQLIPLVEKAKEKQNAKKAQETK
# UniProt P31930: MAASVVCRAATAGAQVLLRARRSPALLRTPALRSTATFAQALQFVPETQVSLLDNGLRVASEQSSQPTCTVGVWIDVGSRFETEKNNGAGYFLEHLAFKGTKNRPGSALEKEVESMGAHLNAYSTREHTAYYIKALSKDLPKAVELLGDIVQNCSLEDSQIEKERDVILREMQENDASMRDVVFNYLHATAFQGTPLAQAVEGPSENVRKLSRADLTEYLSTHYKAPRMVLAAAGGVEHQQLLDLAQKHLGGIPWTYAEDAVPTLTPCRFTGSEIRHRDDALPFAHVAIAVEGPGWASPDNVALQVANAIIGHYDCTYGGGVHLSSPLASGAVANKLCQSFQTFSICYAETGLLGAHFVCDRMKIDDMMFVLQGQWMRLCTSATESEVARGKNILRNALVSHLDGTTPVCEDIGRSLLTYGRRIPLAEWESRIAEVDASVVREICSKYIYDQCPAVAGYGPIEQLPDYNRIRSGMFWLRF
# UniProt P10746: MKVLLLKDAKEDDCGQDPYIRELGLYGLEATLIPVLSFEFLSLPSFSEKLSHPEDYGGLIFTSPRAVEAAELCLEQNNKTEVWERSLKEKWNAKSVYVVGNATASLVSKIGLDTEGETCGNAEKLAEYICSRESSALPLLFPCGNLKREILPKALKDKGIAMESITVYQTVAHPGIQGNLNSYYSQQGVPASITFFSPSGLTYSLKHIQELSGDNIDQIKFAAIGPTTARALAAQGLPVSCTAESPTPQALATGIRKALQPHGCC
# UniProt Q9Y4E8: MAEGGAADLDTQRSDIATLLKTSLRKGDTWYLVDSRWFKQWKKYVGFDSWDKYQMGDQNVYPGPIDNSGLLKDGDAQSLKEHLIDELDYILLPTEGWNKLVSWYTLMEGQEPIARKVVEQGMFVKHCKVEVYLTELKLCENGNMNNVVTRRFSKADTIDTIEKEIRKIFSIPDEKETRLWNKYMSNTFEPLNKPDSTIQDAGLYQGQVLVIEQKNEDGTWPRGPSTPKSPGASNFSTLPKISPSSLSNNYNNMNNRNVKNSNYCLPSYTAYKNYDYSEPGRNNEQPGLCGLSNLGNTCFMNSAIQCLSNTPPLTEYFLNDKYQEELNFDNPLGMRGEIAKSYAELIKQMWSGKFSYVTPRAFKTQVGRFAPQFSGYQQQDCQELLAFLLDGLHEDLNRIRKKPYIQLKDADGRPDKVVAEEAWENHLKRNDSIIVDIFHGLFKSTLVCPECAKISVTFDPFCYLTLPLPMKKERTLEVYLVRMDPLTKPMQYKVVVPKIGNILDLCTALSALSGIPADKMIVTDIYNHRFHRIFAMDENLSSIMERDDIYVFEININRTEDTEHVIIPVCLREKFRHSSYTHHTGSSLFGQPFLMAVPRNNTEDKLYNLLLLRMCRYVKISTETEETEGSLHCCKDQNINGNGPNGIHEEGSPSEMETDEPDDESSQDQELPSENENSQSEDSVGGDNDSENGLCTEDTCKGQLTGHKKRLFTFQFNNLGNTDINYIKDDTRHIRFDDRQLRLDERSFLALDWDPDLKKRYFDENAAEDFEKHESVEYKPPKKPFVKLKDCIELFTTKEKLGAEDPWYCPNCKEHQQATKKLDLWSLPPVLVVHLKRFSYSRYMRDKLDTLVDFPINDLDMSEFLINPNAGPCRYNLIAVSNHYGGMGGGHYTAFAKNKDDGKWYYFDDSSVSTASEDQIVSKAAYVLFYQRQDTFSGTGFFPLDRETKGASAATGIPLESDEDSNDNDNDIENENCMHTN
# UniProt O60701: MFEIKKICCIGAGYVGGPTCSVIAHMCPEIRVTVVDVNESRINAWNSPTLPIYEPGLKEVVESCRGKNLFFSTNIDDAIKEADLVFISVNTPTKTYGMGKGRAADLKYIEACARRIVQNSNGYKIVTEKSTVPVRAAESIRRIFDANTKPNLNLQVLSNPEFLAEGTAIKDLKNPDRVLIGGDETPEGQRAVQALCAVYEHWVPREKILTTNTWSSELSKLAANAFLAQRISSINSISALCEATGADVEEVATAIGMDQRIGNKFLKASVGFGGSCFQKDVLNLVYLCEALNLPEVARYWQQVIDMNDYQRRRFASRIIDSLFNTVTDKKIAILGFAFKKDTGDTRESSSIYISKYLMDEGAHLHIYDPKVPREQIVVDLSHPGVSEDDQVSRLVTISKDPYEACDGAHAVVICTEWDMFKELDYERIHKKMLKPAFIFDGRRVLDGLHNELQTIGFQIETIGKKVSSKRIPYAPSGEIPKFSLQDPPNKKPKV
# UniProt Q8N806: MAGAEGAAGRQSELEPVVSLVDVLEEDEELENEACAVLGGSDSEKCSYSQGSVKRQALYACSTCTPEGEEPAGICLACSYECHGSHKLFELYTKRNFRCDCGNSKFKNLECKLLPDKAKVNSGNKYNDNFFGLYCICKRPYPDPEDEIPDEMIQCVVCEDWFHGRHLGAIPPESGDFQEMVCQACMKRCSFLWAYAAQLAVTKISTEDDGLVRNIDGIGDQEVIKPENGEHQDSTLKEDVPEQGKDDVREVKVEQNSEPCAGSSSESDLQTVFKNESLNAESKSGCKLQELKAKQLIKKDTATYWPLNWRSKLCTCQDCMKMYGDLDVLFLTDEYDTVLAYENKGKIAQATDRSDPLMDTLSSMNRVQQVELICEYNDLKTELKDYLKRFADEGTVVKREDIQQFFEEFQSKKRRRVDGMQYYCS
# The list shows a part of the results.
# Compound: CC1Cc2ccccc2N1C(=O)C1CCCN(C1)C(=O)CCl (mixture of isomers) [TRIM25 ligand 11 (diastereomer mixture)]
# Assay: probe-labelled cysteine peptide fold change vs DMSO (competition) (log2 fold change); higher = less target engagement (more negative = stronger competition)
# Details: 50 µM; THP-1; incubation time: 4 h
# 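Further: competitive chemoproteomic profiling in live THP-1 cells with an iodoacetamide desthiobiotin (IA-DTB) probe, comparing probe-labelled peptide intensities in compound-treated cells against DMSO-treated controls.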
row,Target,probe-labelled cysteine peptide fold change
1,UPF1_Q92900_133_DLPIHACSYCGIHDPACVVYCNTSK (UniProt Q92900),0.224
2,UIMC1_Q96RL1_121_AIAESLNSCRPSDASATR (UniProt Q96RL1),-0.0493
3,UCK2_Q9BZX2_197_PAFEEFCLPTK (UniProt Q9BZX2),0.119
4,UNC13D_Q70J99_992_DLHPLFDETFEFLVPAEPCRK (UniProt Q70J99),-0.107
5,USP20_Q9Y2K6_8_DLCPHLDSIGEVTKEDLLLK (UniProt Q9Y2K6),-0.352
6,UPF1_Q92900_675_QLILVGDHCQLGPVVMCK (UniProt Q92900),0.0263
7,UGGT1_Q9NYU2_159_KTCESDTLEALLLTASERPKPLLFK (UniProt Q9NYU2),-0.333
8,UHRF1_Q96T88_302_SGPSCK (UniProt Q96T88),0.0571
9,USP5_P45974_838_VCASEKPPK (UniProt P45974),-0.0647
10,UCHL5_Q9Y5K5_9_TGNAGEWCLMESDPGVFTELIK (UniProt Q9Y5K5),-0.251
11,UFL1_O94874_649_SIEDFISCLDSAAEACDIMVK (UniProt O94874),0.22
12,UQCRC1_P31930_268_HLGGIPWTYAEDAVPTLTPCR (UniProt P31930),-0.087
13,URB2_Q14146_205_AFGDVTAHLLQPCLVLR (UniProt Q14146),-0.00423
14,UQCRC1_P31930_380_LCTSATESEVAR (UniProt P31930),0.109
15,UHRF1BP1L_A0JNW5_618_HCPNCR (UniProt A0JNW5),0.0935
16,USP3_Q9Y6I4_362_NQENGPVCSLR (UniProt Q9Y6I4),0.0397
17,USP4_Q13107_624_LTLESLYQAVCDR (UniProt Q13107),0.035
18,UNC13D_Q70J99_255_CREDQWYPLEPR (UniProt Q70J99),-0.0552
19,UGGT1_Q9NYU2_1475_SLPQEWLWCETWCDDASK (UniProt Q9NYU2),-0.0572

row,Target,probe-labelled cysteine peptide fold change
1,UROS_P10746_143_ESSALPLLFPCGNLKR (UniProt P10746),-0.138
2,UIMC1_Q96RL1_348_NECISEDMGDEDKEER (UniProt Q96RL1),-0.224
3,USP24_Q9UPU5_116_NDENGNCSGEGIEFPTTNLYELESR (UniProt Q9UPU5),-0.161
4,USP15_Q9Y4E8_873_DKLDTLVDFPINDLDMSEFLINPNAGPCR (UniProt Q9Y4E8),0.0221
5,USP24_Q9UPU5_179_CMPEAFKK (UniProt Q9UPU5),-0.146
6,UGGT1_Q9NYU2_1024_VFMNCQSK (UniProt Q9NYU2),0.15
7,USP15_Q9Y4E8_633+634_ISTETEETEGSLHCCK (UniProt Q9Y4E8),-0.399
8,UGDH_O60701_20_ICCIGAGYVGGPTCSVIAHMCPEIR (UniProt O60701),0.121
9,UBR7_Q8N806_374_VQQVELICEYNDLK (UniProt Q8N806),0.0769
10,UHRF1BP1_Q6BDS2_336_LDLHICDDSQSREPGVSANR (UniProt Q6BDS2),0.221
11,UBR7_Q8N806_260_VEQNSEPCAGSSSESDLQTVFK (UniProt Q8N806),-0.021
12,USP6_P35125_1237_ENGAGQICELADALSR (UniProt P35125),-0.199
13,UBR7_Q8N806_424_VDGMQYYCS (UniProt Q8N806),-0.294
14,UNC45A_Q9H3U1_853_AAAGGLAMLTSMRPTLCSR (UniProt Q9H3U1),-0.204
15,USP7_Q93009_510_HCTNAYMLVYIR (UniProt Q93009),-0.119
16,UGDH_O60701_276_ASVGFGGSCFQK (UniProt O60701),0.09
17,URB1_O60287_563_AVLLQVICLYQK (UniProt O60287),-0.455
18,UBR5_O95071_691_FPGTSSNTNCQNSSGPDADPSSLLQDCR (UniProt O95071),0.165

# Two entries from above, reformatted.
row | Target | probe-labelled cysteine peptide fold change
5 | USP24_Q9UPU5_179_CMPEAFKK (UniProt Q9UPU5) | -0.146
13 | UBR7_Q8N806_424_VDGMQYYCS (UniProt Q8N806) | -0.294
